Compound in the assay: Nc1ncnc2c1ncn2[C@@H]1O[C@H](COP(=O)(O)OP(=O)(O)OP(=O)(O)O)[C@@H](O)[C@H]1O [adenosine triphosphate]
As to the kind of experiment: NP40-soluble protein abundance relative to vehicle (solubility fold change) (ratio); higher = more soluble protein in presence of ATP. The method, boiled down:
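Crude Jurkat lysate, prepared by Dounce homogenisation, was exposed to eight concentrations from 0.1 to 10 mM for 10 min at room temperature and then 3 min at 37 °C. Solubilisation used 0.8% NP40 with benzonase for 60 min at 4 °C, followed by ultracentrifugation and TMT labelling of the supernatant for LC-MS/MS. After vsn normalisation of intensities, each value is the fold change against the detergent-processed vehicle within each replicate, across three independent experiments.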

Protein sequences, listed by entry. Tags and fused reporters are not part of them. Lines headed by an entry give the natural chain unless they say otherwise; changes in a name come on top.
UniProt Q96F25: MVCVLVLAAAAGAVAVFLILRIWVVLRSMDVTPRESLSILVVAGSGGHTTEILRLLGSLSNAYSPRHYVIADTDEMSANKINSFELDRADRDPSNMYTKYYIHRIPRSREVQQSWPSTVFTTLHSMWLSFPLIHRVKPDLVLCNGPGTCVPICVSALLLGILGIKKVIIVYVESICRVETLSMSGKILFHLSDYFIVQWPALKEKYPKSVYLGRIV
UniProt Q96IU4: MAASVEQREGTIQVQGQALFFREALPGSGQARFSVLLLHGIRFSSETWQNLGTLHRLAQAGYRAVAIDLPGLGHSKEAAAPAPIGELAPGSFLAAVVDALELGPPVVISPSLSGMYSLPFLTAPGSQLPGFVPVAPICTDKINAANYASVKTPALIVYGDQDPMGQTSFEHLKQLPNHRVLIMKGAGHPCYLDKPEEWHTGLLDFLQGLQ
UniProt Q96K80: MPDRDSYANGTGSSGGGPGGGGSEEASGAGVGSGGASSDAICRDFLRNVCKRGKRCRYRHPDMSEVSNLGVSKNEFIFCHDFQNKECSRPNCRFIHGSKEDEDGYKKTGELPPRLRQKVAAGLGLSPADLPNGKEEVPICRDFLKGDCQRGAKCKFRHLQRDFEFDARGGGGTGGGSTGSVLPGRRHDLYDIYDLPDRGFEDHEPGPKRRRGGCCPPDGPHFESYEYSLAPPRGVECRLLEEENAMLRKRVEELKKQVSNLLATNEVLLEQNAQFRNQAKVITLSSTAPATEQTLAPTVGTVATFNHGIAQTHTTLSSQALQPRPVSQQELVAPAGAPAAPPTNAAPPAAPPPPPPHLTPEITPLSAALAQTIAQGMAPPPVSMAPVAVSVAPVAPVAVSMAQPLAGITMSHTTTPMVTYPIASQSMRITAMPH
UniProt Q96JB2: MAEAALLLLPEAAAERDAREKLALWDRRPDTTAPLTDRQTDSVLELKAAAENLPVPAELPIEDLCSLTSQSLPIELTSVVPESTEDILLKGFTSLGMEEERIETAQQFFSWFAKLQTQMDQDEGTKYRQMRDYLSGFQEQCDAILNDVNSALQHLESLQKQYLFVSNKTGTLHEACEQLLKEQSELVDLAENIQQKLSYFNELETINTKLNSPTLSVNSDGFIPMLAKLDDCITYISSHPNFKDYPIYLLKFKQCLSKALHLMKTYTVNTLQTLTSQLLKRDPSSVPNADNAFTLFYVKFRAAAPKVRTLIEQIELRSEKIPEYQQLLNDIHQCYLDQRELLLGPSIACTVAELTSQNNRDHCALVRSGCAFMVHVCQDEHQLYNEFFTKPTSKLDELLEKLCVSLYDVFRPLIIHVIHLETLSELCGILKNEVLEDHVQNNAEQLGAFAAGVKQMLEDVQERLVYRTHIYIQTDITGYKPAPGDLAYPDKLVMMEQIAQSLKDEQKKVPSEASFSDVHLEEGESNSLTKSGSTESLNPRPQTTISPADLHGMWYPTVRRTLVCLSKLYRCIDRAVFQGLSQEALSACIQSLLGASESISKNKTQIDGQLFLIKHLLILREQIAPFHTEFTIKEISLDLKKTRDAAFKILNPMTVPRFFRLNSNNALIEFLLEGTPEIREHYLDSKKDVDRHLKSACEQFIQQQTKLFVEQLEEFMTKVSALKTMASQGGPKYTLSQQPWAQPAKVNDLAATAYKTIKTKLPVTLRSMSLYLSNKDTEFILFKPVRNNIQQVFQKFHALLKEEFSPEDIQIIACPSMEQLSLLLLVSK
UniProt Q96GG9: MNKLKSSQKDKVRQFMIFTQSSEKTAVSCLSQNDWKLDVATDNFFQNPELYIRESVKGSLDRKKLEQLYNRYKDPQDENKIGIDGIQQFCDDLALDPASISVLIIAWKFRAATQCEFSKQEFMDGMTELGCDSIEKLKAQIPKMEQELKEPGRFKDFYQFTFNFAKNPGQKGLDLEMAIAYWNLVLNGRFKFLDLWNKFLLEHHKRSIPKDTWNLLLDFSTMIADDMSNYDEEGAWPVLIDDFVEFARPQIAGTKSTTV
UniProt Q96SK2: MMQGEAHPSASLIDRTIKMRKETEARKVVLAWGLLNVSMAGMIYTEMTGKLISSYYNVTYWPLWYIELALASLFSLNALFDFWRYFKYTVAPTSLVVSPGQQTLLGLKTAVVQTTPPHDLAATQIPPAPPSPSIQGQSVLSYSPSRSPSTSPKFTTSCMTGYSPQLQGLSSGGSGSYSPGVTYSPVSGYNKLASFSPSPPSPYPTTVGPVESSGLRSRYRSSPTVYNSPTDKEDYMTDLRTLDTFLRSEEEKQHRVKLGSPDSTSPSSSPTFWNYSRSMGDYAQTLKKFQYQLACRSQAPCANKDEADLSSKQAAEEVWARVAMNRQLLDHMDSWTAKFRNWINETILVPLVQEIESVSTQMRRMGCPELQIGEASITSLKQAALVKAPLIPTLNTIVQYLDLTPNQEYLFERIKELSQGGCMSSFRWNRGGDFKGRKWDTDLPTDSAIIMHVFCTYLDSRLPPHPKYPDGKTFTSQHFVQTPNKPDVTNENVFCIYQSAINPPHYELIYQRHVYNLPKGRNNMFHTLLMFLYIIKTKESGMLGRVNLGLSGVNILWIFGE
UniProt Q96FX2: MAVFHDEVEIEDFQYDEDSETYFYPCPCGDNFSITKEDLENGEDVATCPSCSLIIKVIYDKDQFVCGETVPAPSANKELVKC
UniProt Q96J01: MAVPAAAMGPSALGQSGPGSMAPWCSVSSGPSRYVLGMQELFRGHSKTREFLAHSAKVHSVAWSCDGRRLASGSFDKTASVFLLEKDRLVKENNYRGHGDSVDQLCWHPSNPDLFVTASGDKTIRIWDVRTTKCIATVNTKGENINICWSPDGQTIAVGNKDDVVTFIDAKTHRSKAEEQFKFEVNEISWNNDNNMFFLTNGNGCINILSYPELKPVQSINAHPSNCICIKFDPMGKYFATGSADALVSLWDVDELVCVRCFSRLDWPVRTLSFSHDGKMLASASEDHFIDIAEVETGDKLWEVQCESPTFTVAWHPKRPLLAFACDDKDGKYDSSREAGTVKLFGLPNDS
UniProt Q96CX6, whole entry: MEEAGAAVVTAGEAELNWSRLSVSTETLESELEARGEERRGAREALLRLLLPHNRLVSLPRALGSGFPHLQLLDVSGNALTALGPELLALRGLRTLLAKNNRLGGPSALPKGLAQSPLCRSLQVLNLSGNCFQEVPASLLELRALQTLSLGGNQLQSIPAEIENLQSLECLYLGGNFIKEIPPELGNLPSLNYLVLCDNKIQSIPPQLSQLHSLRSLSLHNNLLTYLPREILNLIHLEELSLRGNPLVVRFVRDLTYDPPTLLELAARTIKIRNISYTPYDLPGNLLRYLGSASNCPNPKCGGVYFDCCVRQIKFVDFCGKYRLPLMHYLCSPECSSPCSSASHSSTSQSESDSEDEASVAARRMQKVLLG
UniProt Q96K58: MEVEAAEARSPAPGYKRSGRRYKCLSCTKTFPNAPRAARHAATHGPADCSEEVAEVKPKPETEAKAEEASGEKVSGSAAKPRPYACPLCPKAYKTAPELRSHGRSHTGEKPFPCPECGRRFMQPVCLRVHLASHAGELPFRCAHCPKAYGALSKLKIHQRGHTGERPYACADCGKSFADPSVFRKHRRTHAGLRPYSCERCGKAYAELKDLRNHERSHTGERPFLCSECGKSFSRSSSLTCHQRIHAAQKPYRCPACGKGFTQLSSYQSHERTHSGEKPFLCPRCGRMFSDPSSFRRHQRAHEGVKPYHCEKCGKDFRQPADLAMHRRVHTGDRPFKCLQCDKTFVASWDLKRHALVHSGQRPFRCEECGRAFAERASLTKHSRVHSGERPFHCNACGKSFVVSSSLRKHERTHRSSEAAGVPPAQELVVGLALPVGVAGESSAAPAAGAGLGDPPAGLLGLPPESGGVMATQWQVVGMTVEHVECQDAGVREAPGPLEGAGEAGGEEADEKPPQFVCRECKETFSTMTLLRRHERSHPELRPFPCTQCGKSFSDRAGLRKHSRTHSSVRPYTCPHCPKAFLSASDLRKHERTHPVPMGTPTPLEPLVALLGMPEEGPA
UniProt Q96HD1: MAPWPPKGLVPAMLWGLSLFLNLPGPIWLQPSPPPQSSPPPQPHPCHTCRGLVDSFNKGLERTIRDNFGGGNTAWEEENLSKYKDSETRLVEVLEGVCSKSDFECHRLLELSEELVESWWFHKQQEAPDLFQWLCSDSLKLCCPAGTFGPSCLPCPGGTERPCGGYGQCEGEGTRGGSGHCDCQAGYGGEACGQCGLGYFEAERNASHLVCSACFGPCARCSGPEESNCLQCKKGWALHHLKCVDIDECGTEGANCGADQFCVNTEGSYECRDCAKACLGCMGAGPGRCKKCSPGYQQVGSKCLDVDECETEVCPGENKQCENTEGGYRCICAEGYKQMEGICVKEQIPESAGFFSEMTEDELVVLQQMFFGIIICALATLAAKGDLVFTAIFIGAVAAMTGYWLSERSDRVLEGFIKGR
UniProt Q96MX3: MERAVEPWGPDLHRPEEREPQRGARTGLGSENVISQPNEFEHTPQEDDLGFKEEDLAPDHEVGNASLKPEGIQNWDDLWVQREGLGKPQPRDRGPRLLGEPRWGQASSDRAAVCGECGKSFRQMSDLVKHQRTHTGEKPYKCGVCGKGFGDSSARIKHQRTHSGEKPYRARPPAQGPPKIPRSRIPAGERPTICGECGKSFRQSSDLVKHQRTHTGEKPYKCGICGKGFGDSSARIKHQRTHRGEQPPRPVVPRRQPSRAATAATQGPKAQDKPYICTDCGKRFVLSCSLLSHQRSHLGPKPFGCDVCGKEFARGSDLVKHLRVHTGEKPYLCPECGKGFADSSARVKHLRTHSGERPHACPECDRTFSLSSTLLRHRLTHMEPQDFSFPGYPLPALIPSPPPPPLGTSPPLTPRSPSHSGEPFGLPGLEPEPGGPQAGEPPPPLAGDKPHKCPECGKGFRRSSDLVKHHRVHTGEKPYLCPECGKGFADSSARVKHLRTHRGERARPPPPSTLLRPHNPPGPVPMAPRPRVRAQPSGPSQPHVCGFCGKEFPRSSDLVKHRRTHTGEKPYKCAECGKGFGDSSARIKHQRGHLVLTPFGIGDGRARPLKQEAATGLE
UniProt Q96DT6: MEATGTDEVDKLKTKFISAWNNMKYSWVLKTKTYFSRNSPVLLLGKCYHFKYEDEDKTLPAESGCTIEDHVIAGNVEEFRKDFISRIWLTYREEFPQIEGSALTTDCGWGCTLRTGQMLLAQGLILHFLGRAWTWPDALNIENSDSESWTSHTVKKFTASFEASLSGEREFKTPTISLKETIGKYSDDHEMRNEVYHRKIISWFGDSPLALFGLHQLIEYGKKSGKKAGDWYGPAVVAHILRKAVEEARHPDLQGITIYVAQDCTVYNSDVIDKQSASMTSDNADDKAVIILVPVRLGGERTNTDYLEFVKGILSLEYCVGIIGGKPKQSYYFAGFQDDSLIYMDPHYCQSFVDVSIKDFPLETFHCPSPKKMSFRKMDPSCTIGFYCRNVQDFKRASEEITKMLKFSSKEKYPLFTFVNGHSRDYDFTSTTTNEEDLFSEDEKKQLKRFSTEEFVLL
UniProt Q96QF0: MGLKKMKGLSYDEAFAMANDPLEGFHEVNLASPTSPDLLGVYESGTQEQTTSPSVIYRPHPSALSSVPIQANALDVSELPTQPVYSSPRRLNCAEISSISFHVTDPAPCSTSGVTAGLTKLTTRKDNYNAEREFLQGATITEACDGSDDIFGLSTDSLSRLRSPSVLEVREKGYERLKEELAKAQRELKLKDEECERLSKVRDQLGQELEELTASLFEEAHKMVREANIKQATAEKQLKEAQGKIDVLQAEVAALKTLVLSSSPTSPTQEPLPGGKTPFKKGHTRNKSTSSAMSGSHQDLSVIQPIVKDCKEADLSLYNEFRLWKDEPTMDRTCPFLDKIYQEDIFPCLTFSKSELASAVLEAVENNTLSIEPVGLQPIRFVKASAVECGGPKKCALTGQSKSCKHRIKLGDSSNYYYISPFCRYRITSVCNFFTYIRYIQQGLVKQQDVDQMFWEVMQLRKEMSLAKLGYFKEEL
UniProt Q96DU7: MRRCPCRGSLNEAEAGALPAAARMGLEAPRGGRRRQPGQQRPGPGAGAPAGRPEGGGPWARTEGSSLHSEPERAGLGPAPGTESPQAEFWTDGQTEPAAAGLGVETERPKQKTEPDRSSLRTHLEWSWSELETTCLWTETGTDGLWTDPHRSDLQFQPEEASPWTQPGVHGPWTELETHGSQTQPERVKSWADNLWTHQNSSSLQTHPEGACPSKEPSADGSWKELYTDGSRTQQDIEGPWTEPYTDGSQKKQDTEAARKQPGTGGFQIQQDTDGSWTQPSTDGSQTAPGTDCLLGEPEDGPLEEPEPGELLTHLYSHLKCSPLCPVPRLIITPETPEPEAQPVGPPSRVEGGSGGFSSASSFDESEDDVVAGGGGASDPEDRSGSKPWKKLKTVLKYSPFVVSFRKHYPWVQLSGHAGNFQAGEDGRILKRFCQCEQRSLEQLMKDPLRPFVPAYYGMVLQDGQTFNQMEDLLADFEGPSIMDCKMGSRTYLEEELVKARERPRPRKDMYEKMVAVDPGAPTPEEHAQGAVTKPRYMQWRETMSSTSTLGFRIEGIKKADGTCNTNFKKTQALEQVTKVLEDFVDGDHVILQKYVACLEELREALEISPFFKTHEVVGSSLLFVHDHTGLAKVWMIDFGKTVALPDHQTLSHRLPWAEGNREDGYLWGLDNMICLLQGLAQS

The results in this text go back to the supplement of paper PMC6411743.

± gives the standard deviation of the averaged measurements. This is a selection; strong and weak results do not stand in their true shares. Most values lie at the level of the controls, where differences are scatter.

Take ALG14 (UniProt Q96F25): the NP40-soluble protein abundance was found to be 1.188 ± 0.0048 (concentration: 0.1mM) and 1.07 ± 0.049 (concentration: 0.5mM).

Take UniProt Q96F44 and related entries: the NP40-soluble protein abundance stood at 1.06 ± 0.034 (concentration: 0.1mM) and 1.06 ± 0.051 (concentration: 0.5mM).

On to UniProt Q96RG2 and related entries, for which the NP40-soluble protein abundance (concentration: 0.1mM) came to 1.003 ± 0.0072 and the NP40-soluble protein abundance (concentration: 0.5mM) came out at 0.999 ± 0.011.

Take UniProt Q96IU4 and related entries: the NP40-soluble protein abundance (concentration: 0.1mM) came to 1 ± 0.015 and the NP40-soluble protein abundance (concentration: 0.5mM) worked out at 0.965 ± 0.014.

Consider UniProt Q96GX5 and related entries, for which the NP40-soluble protein abundance (concentration: 0.1mM) came to 1.02 ± 0.05 and the NP40-soluble protein abundance (concentration: 0.5mM) was 1.01 ± 0.05.

As to ATG2B (UniProt Q96BY7), the NP40-soluble protein abundance (concentration: 0.1mM) amounted to 1 ± 0.06 and the NP40-soluble protein abundance (concentration: 0.5mM) worked out at 0.887 ± 0.079.

For the target DDRGK1 (UniProt Q96HY6), the NP40-soluble protein abundance (concentration: 0.1mM) was 0.941 ± 0.09 and the NP40-soluble protein abundance (concentration: 0.5mM) was 0.949 ± 0.056.

As for UniProt Q96JG8 and related entries, the NP40-soluble protein abundance runs as follows: (concentration: 0.1mM) 1.06 ± 0.053; (concentration: 0.5mM) 1.15 ± 0.014.

Turning to ZC3H10 (UniProt Q96K80), the NP40-soluble protein abundance is, setting by setting: (concentration: 0.1mM) 0.978 ± 0.079; (concentration: 0.5mM) 0.9086 ± 0.0046.

Take COG3 (UniProt Q96JB2): the NP40-soluble protein abundance came to 0.99 ± 0.1 (concentration: 0.1mM) and 1 ± 0.098 (concentration: 0.5mM).

Regarding DCUN1D1 (UniProt Q96GG9), the NP40-soluble protein abundance (concentration: 0.1mM) was 0.971 ± 0.032 and the NP40-soluble protein abundance (concentration: 0.5mM) was 0.982 ± 0.056.

Take UniProt Q96MG7: the NP40-soluble protein abundance stood at 1 ± 0.095 (concentration: 0.1mM) and 0.977 ± 0.025 (concentration: 0.5mM).

Turning to UniProt Q96E29 and related entries, the NP40-soluble protein abundance runs as follows: (concentration: 0.1mM) 1.06 ± 0.094; (concentration: 0.5mM) 1.09 ± 0.062.

With KCTD12 (UniProt Q96CX2), the NP40-soluble protein abundance runs as follows: (concentration: 0.1mM) 1.03 ± 0.093; (concentration: 0.5mM) 0.9655 ± 0.0054.

Regarding UniProt Q96SK2 and related entries, the NP40-soluble protein abundance came out at 1.08 ± 0.083 (concentration: 0.1mM) and 1.05 ± 0.017 (concentration: 0.5mM).

Turning to DPH3 (UniProt Q96FX2), the NP40-soluble protein abundance is, setting by setting: (concentration: 0.1mM) 1.08 ± 0.27; (concentration: 0.5mM) 0.994 ± 0.23.

In the case of THOC3 (UniProt Q96J01), the NP40-soluble protein abundance (concentration: 0.1mM) stood at 1.07 ± 0.084 and the NP40-soluble protein abundance (concentration: 0.5mM) stood at 1.14 ± 0.076.

On to UniProt Q96BY6-3, for which the NP40-soluble protein abundance was 1.05 ± 0.038 (concentration: 0.1mM) and 1.04 ± 0.033 (concentration: 0.5mM).

As for LRRC58 (UniProt Q96CX6), the NP40-soluble protein abundance by setting is: (concentration: 0.1mM) 0.961 ± 0.018; (concentration: 0.5mM) 0.953 ± 0.033.

UniProt Q96K58 and related entries: the NP40-soluble protein abundance was 1.03 ± 0.032 (concentration: 0.1mM) and 0.965 ± 0.04 (concentration: 0.5mM).

For the target UniProt Q96PY6 and related entries, the NP40-soluble protein abundance runs as follows: (concentration: 0.1mM) 0.987 ± 0.05; (concentration: 0.5mM) 1.03 ± 0.015.

With UniProt Q96HD1 and related entries, the NP40-soluble protein abundance (concentration: 0.1mM) was 1.08 ± 0.074 and the NP40-soluble protein abundance (concentration: 0.5mM) was determined as 1.04 ± 0.11.

Take ZNF512B (UniProt Q96KM6): the NP40-soluble protein abundance is 0.976 ± 0.027 (concentration: 0.1mM); 0.993 ± 0.035 (concentration: 0.5mM); 1.01 ± 0.04 (concentration: 1mM); 1.05 ± 0.02 (concentration: 2mM); 1.07 ± 0.024 (concentration: 4mM); 1.12 ± 0.044 (concentration: 6mM). Besides, the NP40-soluble protein abundance (concentration: 8mM) is 1.08 ± 0.03 and the NP40-soluble protein abundance (concentration: 10mM) was found to be 1.08 ± 0.043.

As for ZNF48 (UniProt Q96MX3), the NP40-soluble protein abundance (concentration: 0.1mM) was 0.978 ± 0.027; the NP40-soluble protein abundance (concentration: 0.5mM) came out at 1.02 ± 0.015; the NP40-soluble protein abundance (concentration: 1mM) was determined as 1.11 ± 0.069; the NP40-soluble protein abundance (concentration: 2mM) is 1.13 ± 0.034; the NP40-soluble protein abundance (concentration: 4mM) was 1.21 ± 0.077; the NP40-soluble protein abundance (concentration: 6mM) turned out to be 1.31 ± 0.15. For the same target, the NP40-soluble protein abundance runs as follows: (concentration: 8mM) 1.34 ± 0.12; (concentration: 10mM) 1.4 ± 0.12.

With UniProt Q96P11-2, the NP40-soluble protein abundance worked out at 1.041 ± 0.007 (concentration: 0.1mM); 1.03 ± 0.011 (concentration: 0.5mM); 1.05 ± 0.039 (concentration: 1mM); 1.05 ± 0.03 (concentration: 2mM); 1.11 ± 0.058 (concentration: 4mM); 1.09 ± 0.068 (concentration: 6mM). For the same target, the NP40-soluble protein abundance (concentration: 8mM) was found to be 1.13 ± 0.083 and the NP40-soluble protein abundance (concentration: 10mM) is 1.18 ± 0.072.

As for ATG4C (UniProt Q96DT6), the NP40-soluble protein abundance (concentration: 0.1mM) is 0.99 ± 0.018; the NP40-soluble protein abundance (concentration: 0.5mM) is 1.03 ± 0.09; the NP40-soluble protein abundance (concentration: 1mM) worked out at 1.036 ± 0.003; the NP40-soluble protein abundance (concentration: 2mM) stood at 1.05 ± 0.081; the NP40-soluble protein abundance (concentration: 4mM) was 1.04 ± 0.041; the NP40-soluble protein abundance (concentration: 6mM) was determined as 0.992 ± 0.12. In addition, the NP40-soluble protein abundance (concentration: 8mM) came to 1.05 ± 0.087 and the NP40-soluble protein abundance (concentration: 10mM) worked out at 1 ± 0.092.

As to UniProt Q96QF0 and related entries, the NP40-soluble protein abundance turned out to be 1.08 ± 0.084 (concentration: 0.1mM); 1.02 ± 0.03 (concentration: 0.5mM); 0.996 ± 0.032 (concentration: 1mM); 0.946 ± 0.021 (concentration: 2mM); 1.03 ± 0.034 (concentration: 4mM); 1.001 ± 0.0051 (concentration: 6mM). For the same target, the NP40-soluble protein abundance came out at 0.994 ± 0.062 (concentration: 8mM) and 0.979 ± 0.078 (concentration: 10mM).

On to DHTKD1 (UniProt Q96HY7), for which the NP40-soluble protein abundance by setting is: (concentration: 0.1mM) 1.13 ± 0.094; (concentration: 0.5mM) 1.03 ± 0.043.

On to UniProt Q96GM8 and related entries, for which the NP40-soluble protein abundance by setting is: (concentration: 0.1mM) 1.06 ± 0.056; (concentration: 0.5mM) 1.11 ± 0.066; (concentration: 1mM) 1.06 ± 0.095; (concentration: 2mM) 1.22 ± 0.14; (concentration: 4mM) 1.35 ± 0.12; (concentration: 6mM) 1.38 ± 0.12. Moreover, the NP40-soluble protein abundance (concentration: 8mM) turned out to be 1.53 ± 0.13 and the NP40-soluble protein abundance (concentration: 10mM) was found to be 1.82 ± 0.32.

For the target TGS1 (UniProt Q96RS0), the NP40-soluble protein abundance reads like this: (concentration: 0.1mM) 0.985 ± 0.014; (concentration: 0.5mM) 1.01 ± 0.089; (concentration: 1mM) 0.969 ± 0.087; (concentration: 2mM) 0.995 ± 0.067; (concentration: 4mM) 1.03 ± 0.035; (concentration: 6mM) 1.05 ± 0.054. Moreover, the NP40-soluble protein abundance is, setting by setting: (concentration: 8mM) 1.03 ± 0.069; (concentration: 10mM) 1.1 ± 0.026.

Turning to ITPKC (UniProt Q96DU7), the NP40-soluble protein abundance was 0.965 ± 0.13 (concentration: 0.1mM); 0.942 ± 0.046 (concentration: 0.5mM); 0.986 ± 0.048 (concentration: 1mM); 0.971 ± 0.041 (concentration: 2mM); 1.0284 ± 0.00016 (concentration: 4mM); 0.857 ± 0.11 (concentration: 6mM). Besides, the NP40-soluble protein abundance came out at 0.886 ± 0.026 (concentration: 8mM) and 0.883 ± 0.019 (concentration: 10mM).

As for MRPL38 (UniProt Q96DV4), the NP40-soluble protein abundance runs as follows: (concentration: 0.1mM) 0.95 ± 0.12; (concentration: 0.5mM) 0.966 ± 0.067; (concentration: 1mM) 1.04 ± 0.035; (concentration: 2mM) 0.869 ± 0.076; (concentration: 4mM) 0.87 ± 0.08; (concentration: 6mM) 0.925 ± 0.3. For the same target, the NP40-soluble protein abundance reads like this: (concentration: 8mM) 0.86 ± 0.15; (concentration: 10mM) 0.839 ± 0.15.

For UniProt Q96JM3, the NP40-soluble protein abundance by setting is: (concentration: 0.1mM) 0.996 ± 0.043; (concentration: 0.5mM) 1.03 ± 0.069; (concentration: 1mM) 1.02 ± 0.043; (concentration: 2mM) 1.02 ± 0.042; (concentration: 4mM) 1.03 ± 0.048; (concentration: 6mM) 1.12 ± 0.037. For the same target, the NP40-soluble protein abundance was 1.1 ± 0.039 (concentration: 8mM) and 1.12 ± 0.025 (concentration: 10mM).

For UniProt Q96T23 and related entries, the NP40-soluble protein abundance reads like this: (concentration: 0.1mM) 1.03 ± 0.013; (concentration: 0.5mM) 1.28 ± 0.086; (concentration: 1mM) 1.48 ± 0.043; (concentration: 2mM) 1.62 ± 0.071; (concentration: 4mM) 1.81 ± 0.041; (concentration: 6mM) 2 ± 0.1. The NP40-soluble protein abundance (concentration: 8mM) worked out at 1.96 ± 0.039 and the NP40-soluble protein abundance (concentration: 10mM) was found to be 2.13 ± 0.11.

As to PINX1 (UniProt Q96BK5), the NP40-soluble protein abundance (concentration: 0.1mM) worked out at 1.16 ± 0.087; the NP40-soluble protein abundance (concentration: 0.5mM) worked out at 1.413 ± 0.0073; the NP40-soluble protein abundance (concentration: 1mM) amounted to 1.52 ± 0.023; the NP40-soluble protein abundance (concentration: 2mM) stood at 1.64 ± 0.086; the NP40-soluble protein abundance (concentration: 4mM) came to 1.78 ± 0.11; the NP40-soluble protein abundance (concentration: 6mM) is 1.95 ± 0.1. For the same target, the NP40-soluble protein abundance stood at 1.91 ± 0.13 (concentration: 8mM) and 2.03 ± 0.14 (concentration: 10mM).

For the target PNKP (UniProt Q96T60), the NP40-soluble protein abundance runs as follows: (concentration: 0.1mM) 1.05 ± 0.02; (concentration: 0.5mM) 1.05 ± 0.047; (concentration: 1mM) 1.04 ± 0.02; (concentration: 2mM) 1.0346 ± 0.00031; (concentration: 4mM) 1.03 ± 0.022; (concentration: 6mM) 1.05 ± 0.023. In addition, the NP40-soluble protein abundance runs as follows: (concentration: 8mM) 1.11 ± 0.036; (concentration: 10mM) 1.157 ± 0.011.
